Experimental data: PubChem BioAssay AID504744 (Drosophila RNAi Screening Center, 2011)
Screen: 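Uncover factors, including feedback loops, that control dAkt activation in fly cells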 (primary screen). Cells: Drosophila Kc167 cells. Reagent: long dsRNA against Drosophila genes, 250 ng dsRNA per well of a 384-well plate. Duration: 3 days of knock-down, then overnight serum-free starvation before stimulation. Challenge: bovine insulin at 387 nM for 10 minutes after 12 h without serum. Detection: 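In-cell antibody fluorescence for phospho-dAkt in each well over DNA-dye signal, with log2 residuals expressed as z-scores adjusted for cell count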. Call rule: 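Under insulin, a gene counts as a hit if the average z-score of two replicates lies above 2.5 or below -2.5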.
In all, the deposit lists about 23,000 reagents; this is a random part of those with a known target gene and a result. Over the whole deposit, 98 (0.43%) got an active call. 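Only hit calls are given; the phospho-dAkt signals, z-scores and hit direction were not deposited.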 A plus sign joins genes that one reagent is predicted to hit.

no.	gene	amplicon	activity call
1	sxe2	DRSC15692	inactive
2	CG15019	DRSC08473	inactive
3	CG10062	DRSC05960	inactive
4	CG10062	DRSC22535	inactive
5	CG18004	DRSC06705	inactive
6	Osi18	DRSC12181	inactive
7	Rab9Db + Rab9D + Rab9E	DRSC17656	inactive
8	CG32376	DRSC22754	inactive
9	Cpr64Aa	DRSC08460	inactive
10	tyf	DRSC18382	inactive
11	Yif1	DRSC15817	inactive
12	MED22	DRSC18175	inactive
13	mRpL12	DRSC10467	inactive
14	CG8248	DRSC07124	inactive
15	Sply	DRSC07299	inactive
16	HP1D3csd	DRSC19548	inactive
17	CG32066	DRSC10652	inactive
18	CG32066	DRSC10653	inactive
19	mab-21	DRSC18791	inactive
20	CG8668	DRSC03101	inactive
21	CG33189	DRSC21427	inactive
22	vig	DRSC03630	inactive
23	vig	DRSC03631	inactive
24	vig	DRSC21672	inactive
25	CG33191 + Pif1B	DRSC12706	inactive
26	MP1	DRSC12124	inactive
27	CG14418	DRSC18637	inactive
28	Vps16A	DRSC16422	inactive
29	HHEX	DRSC16186	inactive
30	CG13384	DRSC02258	inactive
31	m	DRSC20181	inactive
32	TrxT	DRSC22182	inactive
33	Orc4	DRSC04634	inactive
34	CG43693	DRSC09086	inactive
35	CG43693	DRSC10625	inactive
36	Ald2	DRSC15799	inactive
37	ldd	DRSC20558	inactive
38	ldd	DRSC22696	inactive
39	CG33791 + CG18170	DRSC08523	inactive
40	CG33791 + CG18170	DRSC08601	inactive
41	SMC1	DRSC16846	inactive
42	CG31343	DRSC15887	inactive
43	c11.1	DRSC18749	inactive
44	CG10352	DRSC19353	inactive
45	EbpIII	DRSC04638	inactive
46	mus201 + Chrac-14	DRSC03568	inactive
47	mus201 + Chrac-14	DRSC03575	inactive
48	CG3566	DRSC18311	inactive
49	CG32486	DRSC08413	inactive
50	CG32486	DRSC08488	inactive
51	SmydA-4	DRSC19390	inactive
52	SmydA-4	DRSC21866	inactive
53	Gmppa	DRSC07108	inactive
54	ouib	DRSC14376	inactive
55	Cht10	DRSC03766	inactive
56	Cht10	DRSC03767	inactive
57	Cht10	DRSC03768	inactive
58	Rip11	DRSC20000	inactive
59	CG4660	DRSC18378	inactive
60	CG1635	DRSC15131	inactive
61	Nelf-E	DRSC10567	inactive
62	CG15439	DRSC00453	inactive
63	Adgf-A2	DRSC09507	inactive
64	Gapdh2	DRSC20246	inactive
65	drl	DRSC03523	inactive
66	CG4098	DRSC10399	inactive
67	CG6980	DRSC16162	inactive
68	RpL19	DRSC04649	inactive
69	Prtl99C	DRSC15049	inactive
70	Cand1	DRSC01992	inactive
71	CG34281	DRSC14807	inactive
72	CG14963	DRSC08422	inactive
73	CG33284	DRSC22905	inactive
74	CG32547	DRSC19263	inactive
75	CG32547	DRSC19265	inactive
76	CG32547	DRSC19474	inactive
77	CG32547	DRSC19626	inactive
78	Dtwd2 + Obp84a	DRSC12603	inactive
79	bcd + CR14578	DRSC20984	inactive
80	disco	DRSC20323	inactive
81	for	DRSC00195	inactive
82	for	DRSC00818	inactive
83	CG10948	DRSC09806	inactive
84	dre4	DRSC08714	inactive
85	CG3634	DRSC11747	inactive
86	CG30037	DRSC07305	inactive
87	CG10472	DRSC09730	inactive
88	CG7227	DRSC03032	inactive
89	CG13032	DRSC09912	inactive
90	Ance	DRSC01865	inactive
91	CG15185	DRSC12565	inactive
92	CG6870	DRSC02998	inactive
93	CG12343	DRSC06135	inactive
94	Wnt5	DRSC20300	inactive
95	CG3176 + CR18166 + CG32817	DRSC17271	inactive
96	CG3176 + CR18166 + CG32817	DRSC17282	inactive
97	CG3176 + CR18166 + CG32817	DRSC18288	inactive
98	EbpII	DRSC04637	inactive
99	EbpII	DRSC22484	inactive
100	Abcd3	DRSC19488	inactive
101	CG12316	DRSC09879	inactive
102	CG8419	DRSC03087	inactive
103	ush	DRSC00843	inactive
104	Rnf146	DRSC11045	inactive
105	l(3)62Be (retired record)	DRSC08231	inactive
106	CG13532	DRSC04174	inactive
107	CG32109	DRSC09816	inactive
108	CG3223	DRSC15468	inactive
109	Or85f	DRSC16769	inactive
110	CG13984	DRSC02316	inactive
111	La	DRSC03358	inactive
112	CG15459	DRSC20530	inactive
113	CG15459	DRSC21383	inactive
114	ATPsynO	DRSC16780	inactive
115	Nsun5	DRSC15835	inactive
116	CG42296	DRSC00394	inactive
117	CG34330	DRSC20043	inactive
118	atl	DRSC16089	inactive
119	CG1896	DRSC15397	inactive
120	BCAS2	DRSC15693	inactive
121	Obp50e	DRSC06434	inactive
122	Spn75F	DRSC09589	inactive
123	P5CS	DRSC11831	inactive
124	P5CS	DRSC11832	inactive
125	CG8004	DRSC10947	inactive
126	Gr36a	DRSC22663	inactive
127	CG9886	DRSC00732	inactive
128	CG11920	DRSC14439	inactive
129	Act88F	DRSC14105	inactive
130	CG13970	DRSC02311	inactive
131	Golgin84	DRSC15269	inactive
132	js	DRSC15004	inactive
133	CycD	DRSC20233	inactive
134	CG42366	DRSC02760	inactive
135	Syt12	DRSC19359	inactive
136	Cib2	DRSC04535	inactive
137	kra	DRSC12320	inactive
138	eIF4B	DRSC20983	inactive
139	ttv	DRSC07709	inactive
140	CG14187	DRSC10186	inactive
141	fdl	DRSC07279	inactive
142	Cyp9f3	DRSC16636	inactive
143	Smyd4-2	DRSC10126	inactive
144	Helz	DRSC11072	inactive
145	Ca-beta	DRSC02406	inactive
146	Ca-beta	DRSC02407	inactive
147	Ca-beta	DRSC03285	inactive
148	Ca-beta	DRSC21432	inactive
149	asp	DRSC16903	inactive
150	CG11825	DRSC06090	inactive
151	CG17782	DRSC15267	inactive
152	ssx	DRSC18492	inactive
153	CG5001	DRSC00673	inactive
154	CG6023	DRSC19970	inactive
155	Ir62a	DRSC08250	inactive
156	bves	DRSC20520	inactive
157	bves	DRSC20554	inactive
158	bves	DRSC20555	inactive

Entries listed so far whose gene name starts with A or a:
gene	amplicon	activity call
Ald2	DRSC15799	inactive
Adgf-A2	DRSC09507	inactive
Ance	DRSC01865	inactive
Abcd3	DRSC19488	inactive
ATPsynO	DRSC16780	inactive
atl	DRSC16089	inactive
Act88F	DRSC14105	inactive
asp	DRSC16903	inactive
